Taken from: PubChem BioAssay AID1224830 (NIAID, 2016)

Screen: 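Regulators of TLR4 signalling towards TNF-alpha in macrophage-like cells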 (primary screen)
Cells: human THP-1 monocytic leukaemia cells, TNF dual-luciferase reporter clone, PMA-differentiated to macrophage-like cells
Knock-down reagent: siRNA pool against human genes, 50 nM
Time to read-out: LPS for 4 h, given about 3 days after siRNA transfection
Conditions: bacterial LPS (TLR4 ligand), 10 ng/ml
Read-out: 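Ratio of firefly to renilla light, scaled to the plate median and expressed as a robust z-score per replicate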
Direction: TNF reporter robust z-score: higher = stronger TNF reporter response to LPS
Call rule: 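a well is active when its z-score exceeds 2.8 or falls below -1.5; control wells carry no call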
The whole screen tested about 18,000 reagents; shown is a random part of them. Of all reagents, about 2,900 (16%) are marked active. 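Calls are made per well; low scores hint the gene aids the LPS response, high scores that it dampens it.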 A number with no mark means an inactive call. Repeated entries: four replicate wells of each siRNA pool.

For SENP6 (SUMO specific peptidase 6) the deposit lists TNF reporter robust z-score 0.85.
Knock-down of SENP6 (SUMO specific peptidase 6) came out at: TNF reporter robust z-score 1.73.
SENP6 (SUMO specific peptidase 6) scored TNF reporter robust z-score 2.2.
SENP6 (SUMO specific peptidase 6) gave TNF reporter robust z-score 1.46.
Depletion of OTUB2 (OTU deubiquitinase, ubiquitin aldehyde binding 2) came out at: TNF reporter robust z-score 0.51.
With knock-down of OTUB2 (OTU deubiquitinase, ubiquitin aldehyde binding 2), the record shows TNF reporter robust z-score 0.65.
After knock-down of OTUB2 (OTU deubiquitinase, ubiquitin aldehyde binding 2) the results were TNF reporter robust z-score -0.08.
For OTUB2 (OTU deubiquitinase, ubiquitin aldehyde binding 2), the entry reads TNF reporter robust z-score 1.35.
RABGGTB (Rab geranylgeranyltransferase subunit beta) scored TNF reporter robust z-score 2.02.
With knock-down of RABGGTB (Rab geranylgeranyltransferase subunit beta), the screen gave TNF reporter robust z-score 1.58.
Against RABGGTB (Rab geranylgeranyltransferase subunit beta) the deposit lists TNF reporter robust z-score -0.32.
Knock-down of RABGGTB (Rab geranylgeranyltransferase subunit beta) came out at: TNF reporter robust z-score -0.01.
FHL3 (four and a half LIM domains 3) scored TNF reporter robust z-score -0.26.
Against FHL3 (four and a half LIM domains 3), the values are TNF reporter robust z-score 0.31.
After knock-down of FHL3 (four and a half LIM domains 3), the screen gave TNF reporter robust z-score 0.03.
With knock-down of FHL3 (four and a half LIM domains 3), the screen gave TNF reporter robust z-score -0.17.
After knock-down of ATP6V1H (ATPase H+ transporting V1 subunit H), the screen gave TNF reporter robust z-score 1.28.
For ATP6V1H (ATPase H+ transporting V1 subunit H) the deposit lists TNF reporter robust z-score -0.79.
Against ATP6V1H (ATPase H+ transporting V1 subunit H), the entry reads TNF reporter robust z-score -0.56.
After knock-down of REXO5 (RNA exonuclease 5) the results were TNF reporter robust z-score -0.45.
Knock-down of REXO5 (RNA exonuclease 5) came out at: TNF reporter robust z-score -0.52.
Knock-down of REXO5 (RNA exonuclease 5) resulted in: TNF reporter robust z-score -0.67.
Silencing of REXO5 (RNA exonuclease 5) came out at: TNF reporter robust z-score 0.09.
With knock-down of NT5DC2 (5'-nucleotidase domain containing 2), the record shows TNF reporter robust z-score -0.93.
Depletion of NT5DC2 (5'-nucleotidase domain containing 2) gave: TNF reporter robust z-score -0.8.
With knock-down of NT5DC2 (5'-nucleotidase domain containing 2) the results were TNF reporter robust z-score 0.25.
NT5DC2 (5'-nucleotidase domain containing 2) showed TNF reporter robust z-score -0.1.
Depletion of THUMPD1 (THUMP domain 1 NAT10 acetyltransferase adaptor) gave: TNF reporter robust z-score 0.81.
Knock-down of THUMPD1 (THUMP domain 1 NAT10 acetyltransferase adaptor) gave: TNF reporter robust z-score 0.93.
With knock-down of THUMPD1 (THUMP domain 1 NAT10 acetyltransferase adaptor), the screen gave TNF reporter robust z-score 0.5.
Against THUMPD1 (THUMP domain 1 NAT10 acetyltransferase adaptor) the deposit lists TNF reporter robust z-score 1.3.
Silencing of SAMM50 (SAMM50 sorting and assembly machinery component) gave: TNF reporter robust z-score -0.72.
Depletion of SAMM50 (SAMM50 sorting and assembly machinery component) came out at: TNF reporter robust z-score -0.49.
SAMM50 (SAMM50 sorting and assembly machinery component) gave TNF reporter robust z-score -0.5.
Depletion of SAMM50 (SAMM50 sorting and assembly machinery component) gave: TNF reporter robust z-score -0.25.
